Measured values taken from US20100285030A1.
These are yes or no findings as the source states them, for the method shown. Some entries that bind do so weakly or less than the wild type.

Molecular target: T1, CD200 (human) (UniProt P41217)
T1 sequence (looked up): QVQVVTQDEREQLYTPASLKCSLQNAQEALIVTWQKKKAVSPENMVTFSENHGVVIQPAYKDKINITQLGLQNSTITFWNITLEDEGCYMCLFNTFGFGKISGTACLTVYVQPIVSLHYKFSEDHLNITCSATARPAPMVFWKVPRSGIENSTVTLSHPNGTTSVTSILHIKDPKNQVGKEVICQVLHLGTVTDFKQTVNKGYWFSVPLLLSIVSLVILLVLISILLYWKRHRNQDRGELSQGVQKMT
Assay: flow cytometry, Zenon-Alexa488-labelled C2aB7 on NCI60 cancer cell lines, ratio stained/unstained

binding: binds
B1: C2aB7 (antibody, human IgG1, kappa, V domains shown)
VH: EVQLQQSGPELVKPGASLKMSCKASGYSFTDYIILWVKQNHGKSLEWIGHIDPYYGSSNYNLKFKGKATLTVDKSSSTAYMQLNSLTSEDSAVYYCGRSKRDYFDYWGQGTTLTVSS
VL: DIQMTQSPSSMYASLGERVTITCKASQDINSYLSWFQQKPGKSPKTLIYRANRLVDGVPSRFSGSGSGQDYSLTISSLEYEDMGIYYCLQYDEFPYTFGGGTKLEIKR
